Laboratory results: PubChem BioAssay AID1508588 (Peter MacCallum Cancer Centre, 2020)

- Purpose: 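Knock-downs boosting vemurafenib effects on melanoma cell growth or lactate release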 (primary screen)
- Cells: human WM266.4 melanoma cells (BRAF V600 mutant)
- Knock-down reagent: siRNA pool against human genes, 40 nM
- Timing: 96 h from transfection to read-out
- Challenge: vemurafenib 300 nM (about IC25), added 48 h after transfection, for 48 h; comparison arm got DMSO vehicle only
- Measurement: 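Ratios to non-targeting siRNA for cell gain, counted as DAPI nuclei after minus before drug and averaged over two replicates, and for absorbance-read medium lactate per cell; both binned into fold-change classes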
- Scale: cell gain with vemurafenib: higher = more cell gain than with non-targeting siRNA; lactate per cell with vemurafenib: higher = more lactate made per cell
- Hit rule: 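Enhancement is called by pairing each knock-down's vehicle-arm and drug-arm fold-change classes for viability or glycolysis; which class combinations qualify is not given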
- Calls: active = enhances vemurafenib effect; inactive = no enhancement seen
This is an unselected part of about 18,000 reagents tested. Over the whole deposit, 790 (4.4%) got an active call. 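Calls rest on a combination of fold-change classes in drug and vehicle arms, not all shown here.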

target,PubChem SID,cell gain with vemurafenib,lactate per cell with vemurafenib,activity call
R3HDML (R3H domain containing like),SID152150498,0.87,1.4,inactive
SART1,SID152151279,0.27,1.01,inactive
PMAIP1 (phorbol-12-myristate-13-acetate-induced protein 1),SID152148742,0.65,0.82,inactive
RASL11B (RAS like family 11 member B),SID134318430,0.78,0.61,inactive
HCAR3 (hydroxycarboxylic acid receptor 3),SID135621035,0.8,0.5,inactive
OR10J3,SID135625136,0.38,1.36,inactive
ZNF454 (zinc finger protein 454),SID135623619,0.05,1.98,inactive
NEK3 (NIMA related kinase 3),SID152154962,0.09,0.97,inactive
ZBTB10 (zinc finger and BTB domain containing 10),SID152152835,0.18,0.9,inactive
CHST5 (carbohydrate sulfotransferase 5),SID135622406,0.63,0.98,inactive
BICC1 (BicC family RNA binding protein 1),SID135622425,0.69,0.9,inactive
THOC3 (THO complex subunit 3),SID135622834,0.4,1.46,inactive
FBXO30 (F-box protein 30),SID152151344,0.42,1.19,inactive
EPHA3 (EPH receptor A3),SID152156000,0.49,0.76,inactive
BPIFB4 (BPI fold containing family B member 4),SID152154061,0.63,1.31,inactive
SUGP2 (SURP and G-patch domain containing 2),SID152152042,0.18,0.26,inactive
SIN3A (SIN3 transcription regulator family member A),SID134317232,0.48,1.73,inactive
NRF1 (nuclear respiratory factor 1),SID135623418,0.54,0.57,inactive
LCE1B (late cornified envelope 1B),SID134322839,0.02,1.38,inactive
RCN3 (reticulocalbin 3),SID152147882,0.16,1.43,inactive
ZNHIT6 (zinc finger HIT-type containing 6),SID134320314,0.92,0.65,inactive
INSIG1 (insulin induced gene 1),SID134321785,0.53,1.15,inactive
RAB11FIP2 (RAB11 family interacting protein 2),SID134324170,0.54,1.48,inactive
RUNDC1 (RUN domain containing 1),SID134321649,0.51,0.63,inactive
"TOB2 (transducer of ERBB2, 2)",SID152152290,0.52,0.64,inactive
CDCA7L (cell division cycle associated 7 like),SID152147367,0.69,1.29,inactive
PER1 (period circadian regulator 1),SID134315695,0.72,1.68,inactive
ADIPOR1 (adiponectin receptor 1),SID134312741,0.09,0.34,inactive
TMEM126B (transmembrane protein 126B),SID134322736,0.77,1.09,inactive
SUCO (SUN domain containing ossification factor),SID134322109,0.49,1.09,inactive
SNRPE (small nuclear ribonucleoprotein polypeptide E),SID152151034,0,2.21,inactive
USP47 (ubiquitin specific peptidase 47),SID152148808,0.96,0.36,inactive
CCL1 (C-C motif chemokine ligand 1),SID134312762,0.61,0.37,inactive
SLC44A5,SID152156053,0.7,0.55,inactive
CD200 (CD200 molecule),SID152147365,0.28,0.55,inactive
KLF7 (KLF transcription factor 7),SID152154018,0.33,1.39,inactive
ADAP1 (ArfGAP with dual PH domains 1),SID135622391,0.23,0.65,inactive
CILP (cartilage intermediate layer protein),SID152156131,1.03,0.62,inactive
C1orf53 (chromosome 1 open reading frame 53),SID152155318,0.67,1.46,inactive
SLC61A1,SID152153765,0.38,1.42,inactive
SP7 (Sp7 transcription factor),SID152152601,0.07,1.04,inactive
CHERP (calcium homeostasis endoplasmic reticulum protein),SID152151588,-0.01,0.34,inactive
ZNF18 (zinc finger protein 18),SID152153209,0.69,0.95,inactive
COLEC10 (collectin subfamily member 10),SID134316505,0.74,0.22,active
CYP4A11 (cytochrome P450 family 4 subfamily A member 11),SID152153617,0.58,0.64,active
KCNE5,SID152147479,0.36,0.94,inactive
TBL3 (transducin beta like 3),SID152154073,0.76,0.89,inactive
ZNF558 (zinc finger protein 558),SID134319767,1.06,0.68,inactive
MPP1 (MAGUK p55 scaffold protein 1),SID56479235,0.58,0.84,inactive
CCN1 (cellular communication network factor 1),SID134310345,0.91,0.62,inactive
STRIP1 (striatin interacting protein 1),SID135624223,0.91,0.64,inactive
SLC17A8,SID134312466,0.81,0.5,inactive
SGF29 (SAGA complex associated factor 29),SID134310203,0.35,1.8,inactive
RHBDF1 (rhomboid 5 homolog 1),SID135622984,0.75,0.38,inactive
IER3IP1 (immediate early response 3 interacting protein 1),SID152149046,0.43,0.76,inactive
REXO5 (RNA exonuclease 5),SID134318792,0.77,0.76,inactive
TRMT11 (tRNA methyltransferase 11),SID135622648,0.84,1.12,inactive
DORIP1 (dopamine receptor interacting protein 1),SID135624261,0.16,2.72,inactive
AGBL2 (AGBL carboxypeptidase 2),SID134317186,0.37,1.42,inactive
PSG8 (pregnancy specific beta-1-glycoprotein 8),SID135625155,0.56,1.03,inactive
VAX1 (ventral anterior homeobox 1),SID135625018,0.87,1.1,inactive
RTL8A (retrotransposon Gag like 8A),SID152153414,0.02,3.66,inactive
AKT2 (AKT serine/threonine kinase 2),SID135620600,0.51,1,inactive
SCOC (short coiled-coil protein),SID134319002,0.48,1.46,inactive
"ZNF271P (zinc finger protein 271, pseudogene)",SID152151602,0.44,0.28,active
BTRC,SID152154547,0.3,0.72,inactive
SNX22 (sorting nexin 22),SID152147246,0.33,1.63,inactive
JAML (junction adhesion molecule like),SID152151002,0.81,0.67,inactive
PGGHG (protein-glucosylgalactosylhydroxylysine glucosidase),SID135622769,0.69,0.86,inactive
TCFL5 (transcription factor like 5),SID134314321,-0.22,1.66,inactive
SLC47A2,SID152149517,0.21,0.57,inactive
FASTKD3 (FASTK mitochondrial RNA regulator 3),SID134318463,0.44,0.77,inactive
TRMU (tRNA mitochondrial 2-thiouridylase),SID152153134,0.51,1.77,inactive
VCX (variable charge X-linked),SID135622558,1.08,0.81,inactive
DNAJC30 (DnaJ heat shock protein family (Hsp40) member C30),SID134321443,-0.09,2.21,inactive
FAM76A (family with sequence similarity 76 member A),SID134320425,0.56,0.94,inactive
NDUFS1 (NADH:ubiquinone oxidoreductase core subunit S1),SID134322883,0.4,1.38,inactive
"RAB40B (RAB40B, member RAS oncogene family)",SID134313230,0.5,0.84,inactive
"NUBP1 (NUBP iron-sulfur cluster assembly factor 1, cytosolic)",SID152148598,0.74,0.8,inactive
SHLD1 (shieldin complex subunit 1),SID134322608,0.39,1.02,inactive
CDC23 (cell division cycle 23),SID152149604,0.55,0.51,inactive
PRG4 (proteoglycan 4),SID152156308,0.59,1.48,inactive
BCAM (basal cell adhesion molecule (Lutheran blood group)),SID135621971,0.46,0.77,inactive
SNCA (synuclein alpha),SID134315468,0.51,0.72,inactive

4 entries from above, arranged by “lactate per cell with vemurafenib”, high to low.
target,PubChem SID,cell gain with vemurafenib,lactate per cell with vemurafenib,activity call
RCN3 (reticulocalbin 3),SID152147882,0.16,1.43,inactive
LCE1B (late cornified envelope 1B),SID134322839,0.02,1.38,inactive
INSIG1 (insulin induced gene 1),SID134321785,0.53,1.15,inactive
ZNHIT6 (zinc finger HIT-type containing 6),SID134320314,0.92,0.65,inactive
